According to PubChem BioAssay AID493014 (National Center for Advancing Translational Sciences (NCATS), 2011):
The list shows a part of the results. Shown are side measurements of this screen, not its main read-out; they come without a call. The list favours compounds with an active or inconclusive main result. Potencies come from curve fits of mixed quality, noted in brackets.

Assay: qHTS Assay to Find Inhibitors of Chronic Active B-Cell Receptor Signaling
Conditions: ABC-DLBCL IkBa-CBG/CBR reporter, luminescence ratio (green luciferase fused to IkBa over red control in TMD8 lymphoma cells), 4 h
Outline: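 TMD8 human ABC-DLBCL cells with doxycycline-inducible IκBα–green luciferase fusion and unfused red luciferase, in 0.5% FBS medium; compounds up to 46 uM, 4 h at 37C. Green/red luminescence ratio, filter-overlap corrected, fitted to concentration-response curves.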

[1] = measured here: CBR red luminescence, cell number
[2] = measured here: IkBa-CBG green luminescence

| SMILES | AC50 [1] | AC50 [2] |
| --- | --- | --- |
| O=C(COC(=O)C1CC1)c1c[nH]c2ccccc12 | 5.8 µM [falling, single point] |  |
| O=C(Nc1ccc([N+](=O)[O-])cn1)c1ccc2c(c1)OCO2 | 2.51 µM [falling, full curve, poor fit] |  |
| CCC(=O)Nc1ccc(C(=O)Cn2ncc(Cl)c(Cl)c2=O)cc1 | 35.5 µM [falling, single point] |  |
| O=C1C=C(c2ccnc3cc(Cl)ccc23)C[C@@H](c2ccc3c(c2)OCO3)C1 | 16.4 µM [falling, partial curve] | 8.2 µM [rising, partial curve, poor fit] |
| Cc1ccc(NC(=O)CSc2nc3ccccc3c(=O)n2CCCC(=O)NCCCN2CCOCC2)cc1C | 0.562 µM [rising, full curve, poor fit] |  |
| Cc1cc(C)c(NC(=O)CN(C)C(=O)CCC(=O)c2ccc(C)s2)c(C)c1 | 0.92 µM [rising, full curve, poor fit] |  |
| CCCNc1nc(C)cc(-c2cc(C(=O)NCc3ccccc3)on2)n1 | 12.6 µM [falling, partial curve, poor fit] |  |
| Cc1cnc(C(=O)OCC(=O)Nc2cc(-c3cc(C)c(C)cc3C)nn2-c2ccccc2)cn1 | 6.51 µM [rising, partial curve, poor fit] |  |
| CC(=O)c1c(C)[nH]c(C(=O)OCC(=O)NCc2ccc(Cl)cc2)c1C | 20.6 µM [falling, single point] |  |
| Cc1ccc(S(=O)(=O)c2nnn(-c3ccc(F)c(Cl)c3)c2N)cc1 | 0.355 µM [rising, partial curve, poor fit] |  |
| Cc1ccccc1Nc1nnc(SCC(=O)NC(=O)NCc2ccco2)s1 | 20 µM [falling, partial curve, poor fit] |  |
| CC(c1ccco1)N(C(=O)c1ccccc1NS(=O)(=O)c1ccc(Cl)c([N+](=O)[O-])c1)c1ccccn1 (configuration not stated) | 20.6 µM [falling, single point] |  |
| COc1cccc(NC(=O)c2cccc(Cl)c2)c1 | 9.2 µM [falling, partial curve] |  |
| COC(=O)c1ccccc1NC(=O)C1=CC(c2cccs2)=NS(=O)(=O)N1C | 0.631 µM [falling, full curve, poor fit] |  |
| COc1cc2cnc(-c3ccccc3)c(C(=O)c3ccc(F)cc3)c2cc1OC | 18.4 µM [falling, single point] | 16.4 µM [rising, partial curve, poor fit] |
| CCC(C(=O)N1CCN(c2cccc(Cl)c2)CC1)c1ccccc1 (configuration not stated) | 14.6 µM [falling, partial curve, poor fit] |  |
| CC(/C=C/c1ccccc1)=N\NC(=O)Cn1cncn1 | 35.5 µM [rising, single point] |  |
| CCCCC1CCC(c2nc(-c3cccnc3)no2)CC1 (configuration not stated) | 3.16 µM [rising, partial curve, poor fit] |  |
| Cc1ccc(C)c2c1sc(=NC(=O)CN1C(=O)CCC1=O)n2C | 23.1 µM [falling, single point] |  |
| CN(C)c1ccc(C(=O)Nc2cccc(S(=O)(=O)NC3=NCCCCC3)c2)cc1 | 10.3 µM [falling, partial curve] |  |
| Cc1ccnc(NC(=O)c2ccc(C(=O)c3ccccc3)cc2)c1 | 16.4 µM [falling, single point] |  |

Random excerpt: five compounds from above.

| SMILES | AC50 [1] | AC50 [2] |
| --- | --- | --- |
| CC(=O)c1c(C)[nH]c(C(=O)OCC(=O)NCc2ccc(Cl)cc2)c1C | 20.6 µM [falling, single point] |  |
| O=C1C=C(c2ccnc3cc(Cl)ccc23)C[C@@H](c2ccc3c(c2)OCO3)C1 | 16.4 µM [falling, partial curve] | 8.2 µM [rising, partial curve, poor fit] |
| COc1cc2cnc(-c3ccccc3)c(C(=O)c3ccc(F)cc3)c2cc1OC | 18.4 µM [falling, single point] | 16.4 µM [rising, partial curve, poor fit] |
| CCC(=O)Nc1ccc(C(=O)Cn2ncc(Cl)c(Cl)c2=O)cc1 | 35.5 µM [falling, single point] |  |
| O=C(COC(=O)C1CC1)c1c[nH]c2ccccc12 | 5.8 µM [falling, single point] |  |

(list continues)

| SMILES | AC50 [1] | AC50 [2] |
| --- | --- | --- |
| Cc1cc(NC(=O)c2ccc(Br)cc2)nc(C)n1 | 15.8 µM [falling, partial curve, poor fit] |  |
| O=C1CCCC/C1=C\Nc1ccc(Cl)cn1 | 0.461 µM [rising, partial curve, poor fit] |  |
| CCCCCCCn1c(=N)n(CC(O)c2ccco2)c2ccccc21 (configuration not stated) | 11.2 µM [falling, single point] |  |
| NCCOc1ccccc1OCCN | 35.5 µM [falling, single point] |  |
| CCOc1ccc(S(=O)(=O)N2CCCCC2)cc1NC(=O)Cc1cccc(C(F)(F)F)c1 | 20.6 µM [rising, partial curve, poor fit] |  |
| O=C(O)CCCCCNC(=O)C(=O)C1C(=O)Nc2ccccc21 (configuration not stated) | 7.94 µM [falling, partial curve] |  |
| CC(=O)Nc1ccc(NC(=O)C/C(C)=N/NC(=O)c2cccc3ccccc23)cc1 | 2 µM [falling, full curve] |  |
| COc1ccc(CCn2c(-c3cc([N+](=O)[O-])cc([N+](=O)[O-])c3)nc3nc4ccccc4nc32)cc1 | 20.6 µM [rising, partial curve, poor fit] |  |
| O=C(Cc1cc(C(=O)O)c2ccccc2n1)Nc1ccccc1 | 10 µM [falling, partial curve, poor fit] |  |
| COc1ccc(-c2c(C)n([O-])c3c([n+]2=O)CCCCC3)cc1OC | 35.5 µM [rising, single point] |  |
| Cc1cc(C)nc(NC(=O)/C=C/c2ccc(Cl)cc2)n1 | 7.94 µM [falling, partial curve] |  |
| CC(C)C(=O)NC(=S)Nc1ccc(S(=O)(=O)NC2CCCCC2)cc1 | 35.5 µM [falling, single point] |  |
| COc1ccc(N2CCN(C(=O)c3cccc(S(=O)(=O)N4CCOCC4)c3)CC2)cc1 | 23.1 µM [falling, single point] |  |
| CCOC(=O)[C@H]1[C@H]2COc3ccc(C)cc3[C@@H]2N2C(=O)CN(Cc3ccco3)C(=O)[C@@]12C | 14.6 µM [falling, partial curve, poor fit] |  |
| CC(=O)Nc1ccc(CN2CCN(Cc3ccc(C)cc3)C(CCO)C2)cc1 (configuration not stated) | 35.5 µM [falling, single point] |  |
| COC(=O)c1ccc(CSC2=NCCS2)cc1 | 2.91 µM [rising, full curve, poor fit] |  |
| O=C(Nc1nc2c(F)cc(F)cc2s1)c1ccccn1 | 3.55 µM [falling, full curve, poor fit] | 3.16 µM [falling, full curve] |
| Cc1ccc(C)c(NC(=O)CN(C)C(=O)c2ccccc2OCc2ccccc2Cl)c1 | 25.9 µM [falling, single point] |  |
| CCOC(=O)c1[nH]cnc1C(=O)NC1CCN(C(=O)OC(C)(C)C)CC1 | 5.8 µM [rising, partial curve, poor fit] |  |
| COC(=O)c1ccc(C(=O)OC)c(NC(=O)COc2ccccc2OC)c1 | 25.9 µM [falling, partial curve, poor fit] |  |
| Cc1ccc(-n2ncc3c(Nc4cccc(C(=O)O)c4)ncnc32)cc1 | 10.3 µM [falling, partial curve] | 1.84 µM [rising, partial curve, poor fit] |

| SMILES | AC50 [1] | AC50 [2] |
| --- | --- | --- |
| O=C(Nc1ccccc1N1CCN(C(=O)c2ccccc2)CC1)c1ccco1 | 25.1 µM [falling, single point] |  |
| CCCOc1ccc(C(=O)CCC(=O)OCC(=O)Nc2cc(C)on2)cc1 | 16.4 µM [rising, partial curve, poor fit] |  |
| Cc1nc2ccc(NS(=O)(=O)c3cccc([N+](=O)[O-])c3)cc2s1 | 29.1 µM [falling, single point] |  |
| Cc1cccc(/C=C/c2onc(C)c2S(=O)(=O)N2CCC(C(=O)N3CCCCC3)CC2)c1 | 1.26 µM [rising, partial curve, poor fit] |  |
| CCN(CC)CCCN=C1N[C@@H](c2cccc(F)c2)C(C(=O)OC)=C(C)N1Cc1ccccc1 | 13 µM [falling, partial curve, poor fit] |  |
| COC(=O)c1ccccc1NC(=O)c1cc(-c2ccc(O)cc2)on1 | 0.316 µM [falling, full curve, poor fit] |  |
| Cn1c(-c2ccccc2F)cc2onc(-c3ccccc3)c2c1=O | 0.146 µM [rising, full curve, poor fit] |  |
| O=C(CC1Nc2ccccc2NC1=O)NCCc1ccccc1 (configuration not stated) | 13 µM [falling, partial curve, poor fit] |  |
| c1ccc(CNc2nc(-c3ccccn3)nc3ccccc23)cc1 | 12.6 µM [falling, partial curve] |  |
| O=C(NC1CCCC1)c1n[nH]c2ccccc12 | 11.2 µM [falling, partial curve] |  |
| O=C(CCl)N(C1CCCC1)C1CCS(=O)(=O)C1 (configuration not stated) | 35.5 µM [falling, single point] |  |
| COc1ccc(C)cc1NC(=O)C12CCC(C)(C(=O)O1)C2(C)C (configuration not stated) | 6.51 µM [rising, single point] |  |
| CC(C)(C)c1csc(N(CCC#N)CCC#N)n1 | 0.259 µM [rising, full curve, poor fit] |  |
| COc1cc(/C=N/n2cnnc2)ccc1OC(=O)c1ccncc1 | 7.08 µM [falling, partial curve] |  |
| CCCCN(C)CCCNC(=O)c1cc(-c2cccs2)nc2ccccc12 | 35.5 µM [falling, single point] |  |
| Cc1cccc(CSCc2nnc(N)s2)c1 | 29.1 µM [rising, partial curve] |  |
| Cc1ccc2cccc(OCCCOc3ccccc3F)c2n1 | 0.708 µM [rising, partial curve, poor fit] |  |
| Cc1nc2sc3c(c2c(=O)o1)CCC3 | 6.51 µM [rising, single point] |  |
| Cc1ccc(NC(=O)c2ccccc2O)cc1 | 6.51 µM [falling, partial curve] |  |
| Cc1ccc2cc(/C=N/NC(=O)c3ccccc3O)c(Cl)nc2c1 | 14.6 µM [falling, partial curve, poor fit] |  |
| O=C(/C=C/c1ccco1)Nc1ccc2c(c1)OCO2 | 5.01 µM [falling, partial curve] |  |
